Measurements reported in PubChem BioAssay AID504793 (Drosophila RNAi Screening Center, 2011)

Purpose: 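Genes required for cells to halt at G2/M after double-strand DNA breaks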 (primary screen)
Cell system: Drosophila S2R+ cells
Reagents: long dsRNA against Drosophila genes, about 0.25 µg dsRNA per well
Duration: 4 days of dsRNA, then 4 hours of drug before read-out
Treatment: doxorubicin 0.5 µM for 4 hours to cause double-strand breaks, in cells also given a low, harmless dose of dsRNA against nbs to sensitise the assay
Detection: 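Mitotic index as the number of phospho-histone H3-positive cells in each well following doxorubicin, given as raw counts without normalisation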
Scale: mitotic cells: higher = more cells in mitosis, weaker G2 arrest
Active means: 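Genes are called active only when high mitotic counts were reproduced with independent dsRNAs and mitosis was checked for delay without damage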
Calls: active = confirmed in follow-up tests; inactive = not confirmed
The screen tested about 23,000 reagents; this is an unselected part of those that have a named target and a result. In the full data, 62 (0.27%) were called active. 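Calls come from follow-up tests whose scores are not deposited, so confirmed genes may have low counts here; counts are not normalised per plate.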 The raw values are shown without normalisation. Names joined by + are all predicted targets of the reagent.

The first 12 records, to show the layout:
no.	gene	DRSC id	mitotic cells, replicate 1	outcome
1	sordd1	DRSC28653		inactive
2	CG9682	DRSC16536	7	inactive
3	CG9682	DRSC25635	9	inactive
4	CG14879	DRSC15003	4	inactive
5	CG14879	DRSC28083	5	inactive
6	Hr3	DRSC07441	14	inactive
7	D12	DRSC03311	2	inactive
8	CG1847	DRSC19810	6	inactive
9	CG14421	DRSC17918	18	inactive
10	CG14421	DRSC25245	8	inactive
11	CG17118	DRSC02579	6	inactive
12	CG7222	DRSC07019	7	inactive

Main list, repeating the preview:
no.	gene	DRSC id	mitotic cells, replicate 1	outcome
1	sordd1	DRSC28653		inactive
2	CG9682	DRSC16536	7	inactive
3	CG9682	DRSC25635	9	inactive
4	CG14879	DRSC15003	4	inactive
5	CG14879	DRSC28083	5	inactive
6	Hr3	DRSC07441	14	inactive
7	D12	DRSC03311	2	inactive
8	CG1847	DRSC19810	6	inactive
9	CG14421	DRSC17918	18	inactive
10	CG14421	DRSC25245	8	inactive
11	CG17118	DRSC02579	6	inactive
12	CG7222	DRSC07019	7	inactive
13	Fer3HCH	DRSC19892	17	inactive
14	Fer3HCH	DRSC26911	6	inactive
15	Ir52a	DRSC06262	3	inactive
16	Cap-G	DRSC06652	1	inactive
17	Cap-G	DRSC06653	7	inactive
18	Cap-G	DRSC21805	19	inactive
19	Mp	DRSC10193	11	inactive
20	Mp	DRSC11029	6	inactive
21	Mp	DRSC11030	5	inactive
22	sunn	DRSC21659	9	inactive
23	Yip1d1	DRSC02166	3	inactive
24	HSPBAP1	DRSC14567	11	inactive
25	Spt5	DRSC07556	16	active
26	mirr	DRSC11369		inactive
27	mirr	DRSC25450	3	inactive
28	PCNA	DRSC07653	9	inactive
29	Tpr2	DRSC03461	1	inactive
30	CG6209	DRSC06968	9	inactive
31	CG6209	DRSC28800	8	inactive
32	CG31626 + CG8677	DRSC21844	12	inactive
33	CG31626 + CG8677	DRSC25078	4	inactive
34	CG4991	DRSC19928	6	inactive
35	btd	DRSC18747	10	inactive
36	btd	DRSC29060	3	inactive
37	CG8031	DRSC16364	4	inactive
38	CG13928	DRSC08397	3	inactive
39	tobi	DRSC14435	10	inactive
40	park + Targ3	DRSC11617	6	inactive
41	CG13272	DRSC02249	6	inactive
42	CG13272	DRSC22910	17	inactive
43	CG13272	DRSC28613	2	inactive
44	ash2	DRSC16902	7	inactive
45	lncRNA:CR33948	DRSC37885	8	inactive
46	PIG-C	DRSC08241	10	inactive
47	Vdup1	DRSC08586	4	inactive
48	l(3)mbn	DRSC08793	3	inactive
49	CG4783	DRSC15644	8	inactive
50	CG16743	DRSC24981	5	inactive
51	mop	DRSC11065	3	inactive
52	mop	DRSC28489	3	inactive
53	TRAM	DRSC18178	10	inactive
54	TRAM	DRSC18651	10	inactive
55	CG43386	DRSC17980	16	inactive
56	GatB	DRSC15807	12	inactive
57	GatB	DRSC27887	2	inactive
58	CG8665	DRSC03098	3	inactive
59	CG4860	DRSC15664	13	inactive
60	CG4860	DRSC21755	2	inactive
61	KaiR1D	DRSC15516	9	inactive
62	CG9932	DRSC03275	6	inactive
63	CG12783	DRSC14538	14	inactive
64	CG8326	DRSC20103	6	inactive
65	CG8326	DRSC28368	4	inactive
66	Odj	DRSC16234	10	inactive
67	CG12438	DRSC02167	2	inactive
68	CG46441	DRSC15561	11	inactive
69	CG46441	DRSC24659	9	inactive
70	CG32278 + CG14963	DRSC22203	9	inactive
71	Dgk	DRSC05064	12	inactive
72	Dgk	DRSC05065	9	inactive
73	Dgk	DRSC06171	9	inactive
74	Dgk	DRSC06782	16	inactive
75	Dgk	DRSC25166	8	inactive
76	Osi10b	DRSC12279	7	inactive
77	ArfGAP1	DRSC11173	8	inactive
78	CG11317	DRSC14299	5	inactive
79	DUBAI	DRSC07281	4	inactive
80	Map60	DRSC07464	4	inactive
81	Ube4B	DRSC03277	5	inactive
82	CG15605	DRSC06558	4	inactive
83	CG31681	DRSC00107	7	inactive
84	CG31681	DRSC25893	6	inactive
85	CG9747	DRSC16554	8	inactive
86	CG9747	DRSC23910	6	inactive
87	rump	DRSC16480	9	inactive
88	lok	DRSC03567	3	inactive
89	lok	DRSC25866	10	inactive
90	rhi	DRSC05996	5	inactive
91	CG9951	DRSC11105	3	inactive
92	Catsup	DRSC03288	12	inactive
93	Catsup	DRSC25727	1	inactive
94	az2	DRSC07580	7	inactive
95	rgn	DRSC11609	8	inactive
96	ND-20L	DRSC15414	9	inactive
97	CG9902	DRSC20212	12	inactive
98	CG9902	DRSC24871	11	inactive
99	CG4297	DRSC00651	3	inactive
100	FER	DRSC12735	21	inactive
101	FER	DRSC16673	6	inactive
102	FER	DRSC29894	3	inactive
103	Ssu72	DRSC19572	11	inactive
104	Ssu72	DRSC27868	5	inactive
105	elg1	DRSC10229	7	inactive
106	elg1	DRSC27844	6	inactive
107	CG12016 + Dpm2	DRSC08224	4	inactive
108	CG12016 + Dpm2	DRSC25292	3	inactive
109	CG1632	DRSC17558	9	inactive
110	CG1632	DRSC18110	7	inactive
111	SMC6	DRSC15829	7	inactive
112	SMC6	DRSC25997	8	inactive
113	CG10301	DRSC14226	11	inactive
114	CG10853	DRSC08164	6	inactive
115	CG10853	DRSC23600	5	inactive
116	CG32061	DRSC22605	7	inactive
117	CG11594	DRSC08207	5	inactive
118	CG15236	DRSC23025	7	inactive
119	CG15236	DRSC25883	7	inactive
120	CG17124	DRSC02580	2	inactive
121	CG17124	DRSC29139	5	inactive
122	asRNA:CR33945	DRSC14080	6	inactive
123	asRNA:CR33945	DRSC38805	6	inactive
124	Tsp42Er	DRSC06183	6	inactive
125	Mks1	DRSC19697	9	inactive
126	BI-1	DRSC10782	4	inactive
127	CG11679	DRSC19415	11	inactive
128	CG13308	DRSC09979	5	inactive
129	pths	DRSC03171	6	inactive
130	CG44325	DRSC18423	13	inactive
131	sut4	DRSC07703	5	inactive
132	sut4	DRSC24885	8	inactive
133	CG13114	DRSC02212	1	inactive
134	CG6873	DRSC20014	4	inactive
135	Pgm2a	DRSC07068	5	inactive
136	CG17168	DRSC20904	5	inactive
137	CG17168	DRSC29872	5	inactive
138	CG32971	DRSC01372	6	inactive
139	CG15570	DRSC18058	13	inactive
140	NC2alpha	DRSC04059	7	inactive
141	NC2alpha	DRSC25348	5	inactive
